Results are given in words; binding and its absence hold for the method and conditions named. In cells and extracts the contact can be indirect. Some entries that bind do so weakly or less than the wild type. Sequences can lack the tags named with a protein.
T1: NLRP11-eGFP (stable Flp-In T-REx HEK293 line) (human) (UniProt P59045)
T1 sequence: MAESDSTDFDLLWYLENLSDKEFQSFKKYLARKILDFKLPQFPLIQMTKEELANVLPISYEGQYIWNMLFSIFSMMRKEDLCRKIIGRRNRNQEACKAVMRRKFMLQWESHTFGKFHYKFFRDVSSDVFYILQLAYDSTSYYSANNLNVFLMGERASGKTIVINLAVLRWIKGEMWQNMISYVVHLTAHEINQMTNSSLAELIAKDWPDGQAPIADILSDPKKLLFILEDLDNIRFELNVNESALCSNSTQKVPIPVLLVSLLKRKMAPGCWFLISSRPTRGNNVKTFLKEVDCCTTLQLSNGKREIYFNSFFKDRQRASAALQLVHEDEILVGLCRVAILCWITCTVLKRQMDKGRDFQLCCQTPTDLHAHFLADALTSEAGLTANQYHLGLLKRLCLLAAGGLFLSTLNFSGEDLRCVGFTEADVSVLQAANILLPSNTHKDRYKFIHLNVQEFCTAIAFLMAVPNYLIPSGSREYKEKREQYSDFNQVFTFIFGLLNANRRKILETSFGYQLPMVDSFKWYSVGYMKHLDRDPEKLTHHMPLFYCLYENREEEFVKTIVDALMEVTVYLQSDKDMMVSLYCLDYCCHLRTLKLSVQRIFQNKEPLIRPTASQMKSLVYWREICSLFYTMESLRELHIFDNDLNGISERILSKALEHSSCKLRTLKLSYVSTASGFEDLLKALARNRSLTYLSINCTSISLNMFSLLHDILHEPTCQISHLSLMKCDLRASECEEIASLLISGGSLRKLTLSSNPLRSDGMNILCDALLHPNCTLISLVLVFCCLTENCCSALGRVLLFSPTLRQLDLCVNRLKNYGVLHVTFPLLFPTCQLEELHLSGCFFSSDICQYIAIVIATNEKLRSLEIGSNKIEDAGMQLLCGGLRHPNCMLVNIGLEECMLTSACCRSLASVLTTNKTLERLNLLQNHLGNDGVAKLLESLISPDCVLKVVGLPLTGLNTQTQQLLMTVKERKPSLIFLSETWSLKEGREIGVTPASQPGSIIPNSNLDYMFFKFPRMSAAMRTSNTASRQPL

Protein sequences, listed by entry. Tags and fused reporters are not part of them.
UniProt O00571: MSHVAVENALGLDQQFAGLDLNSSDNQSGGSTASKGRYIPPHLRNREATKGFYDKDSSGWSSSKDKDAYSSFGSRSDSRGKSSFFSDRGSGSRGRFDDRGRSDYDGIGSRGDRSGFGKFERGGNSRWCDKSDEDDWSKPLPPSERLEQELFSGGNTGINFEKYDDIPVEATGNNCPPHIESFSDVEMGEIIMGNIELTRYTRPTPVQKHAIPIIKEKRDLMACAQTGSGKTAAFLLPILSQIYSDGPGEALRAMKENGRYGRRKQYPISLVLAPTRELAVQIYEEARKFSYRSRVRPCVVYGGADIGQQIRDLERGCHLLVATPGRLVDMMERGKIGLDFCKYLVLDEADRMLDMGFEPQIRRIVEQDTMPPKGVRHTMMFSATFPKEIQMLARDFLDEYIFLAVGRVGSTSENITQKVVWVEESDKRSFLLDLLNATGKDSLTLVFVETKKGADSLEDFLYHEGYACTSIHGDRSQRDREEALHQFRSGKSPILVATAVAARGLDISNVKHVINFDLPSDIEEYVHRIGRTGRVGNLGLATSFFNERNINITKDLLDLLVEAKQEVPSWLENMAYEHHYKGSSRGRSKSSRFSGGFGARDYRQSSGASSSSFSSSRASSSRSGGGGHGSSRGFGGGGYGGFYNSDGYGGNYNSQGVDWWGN

B1: myc-NLRP11 NACHT (domain or fragment, UniProt P59045 147-470)
chain: LNVFLMGERASGKTIVINLAVLRWIKGEMWQNMISYVVHLTAHEINQMTNSSLAELIAKDWPDGQAPIADILSDPKKLLFILEDLDNIRFELNVNESALCSNSTQKVPIPVLLVSLLKRKMAPGCWFLISSRPTRGNNVKTFLKEVDCCTTLQLSNGKREIYFNSFFKDRQRASAALQLVHEDEILVGLCRVAILCWITCTVLKRQMDKGRDFQLCCQTPTDLHAHFLADALTSEAGLTANQYHLGLLKRLCLLAAGGLFLSTLNFSGEDLRCVGFTEADVSVLQAANILLPSNTHKDRYKFIHLNVQEFCTAIAFLMAVPNYL

Tests used:
[1] = target: T1, NLRP11-eGFP (stable Flp-In T-REx HEK293 line) (human); assay: co-IP; GFP-Trap agarose precipitation of NLRP11-eGFP (or eGFP as control) from doxycycline-induced HEK293 FlpIn cells, 4°C, 3 h; blot for endogenous DDX3X; also after Sendai virus infection for the indicated times
eGFP-DDX3X (human) = eGFP-DDX3X (human) (UniProt O00571); assay: co-IP; GFP-Trap agarose precipitation of eGFP-DDX3X (or empty vector) from transiently transfected HEK293T cells co-expressing myc-NLRP11 constructs, 4°C, 3 h; blot for myc

Molecule	binding [1]	binding (eGFP-DDX3X (human))
DDX3X (endogenous, HEK293) (from UniProt O00571 1-662)	binds	
B1		binds weakly
